Source: paper PMC4653696
No constants are given. Whether binding was seen depends on the method and setting. Some entries that bind do so weakly or less than the wild type. Where a sequence is shown, tags or fusion partners need not be part of it.

T1: (His)6-Cdc12(L310C), otherwise Cys-less (S. cerevisiae) (UniProt P32468)
T1 sequence: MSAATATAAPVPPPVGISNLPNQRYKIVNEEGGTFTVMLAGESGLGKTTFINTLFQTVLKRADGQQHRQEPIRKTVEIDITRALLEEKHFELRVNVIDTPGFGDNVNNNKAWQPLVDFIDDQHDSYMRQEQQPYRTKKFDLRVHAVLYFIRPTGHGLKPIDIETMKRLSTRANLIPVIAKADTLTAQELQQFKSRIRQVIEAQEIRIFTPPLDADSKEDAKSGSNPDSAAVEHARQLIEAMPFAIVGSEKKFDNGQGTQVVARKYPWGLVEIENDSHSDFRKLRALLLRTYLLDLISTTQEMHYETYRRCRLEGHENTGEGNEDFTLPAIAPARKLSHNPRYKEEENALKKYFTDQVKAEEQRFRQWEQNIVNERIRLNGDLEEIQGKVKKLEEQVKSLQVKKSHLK

T2: (His)6-Cdc12(C40A,C278S) (S. cerevisiae) (UniProt P32468)
T2 sequence: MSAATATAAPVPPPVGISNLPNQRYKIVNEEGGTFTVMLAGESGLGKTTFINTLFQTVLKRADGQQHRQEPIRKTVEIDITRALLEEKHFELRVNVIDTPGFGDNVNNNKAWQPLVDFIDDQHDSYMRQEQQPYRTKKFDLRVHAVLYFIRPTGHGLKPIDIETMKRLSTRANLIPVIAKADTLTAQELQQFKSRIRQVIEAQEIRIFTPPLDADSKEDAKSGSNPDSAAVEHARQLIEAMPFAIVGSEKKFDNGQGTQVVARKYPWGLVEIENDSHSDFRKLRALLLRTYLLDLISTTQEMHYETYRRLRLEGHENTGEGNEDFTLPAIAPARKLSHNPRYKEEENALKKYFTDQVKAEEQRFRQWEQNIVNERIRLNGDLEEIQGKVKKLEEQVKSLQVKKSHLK


Assays:
[1] = biological target: T1, (His)6-Cdc12(L310C), otherwise Cys-less (S. cerevisiae); assay: co-purification (IMAC on His6-Cdc12, then SEC); septin subunits co-expressed in E. coli from two DUET vectors; Ni-NTA in 300 mM KCl, chitin-agarose flow-through, Superdex 200 in 300 mM KCl, 50 mM Tris-HCl pH 8.0; fractions by SDS-PAGE and Coomassie; complex recaptured by IMAC after labelling
[2] = biological target: T2, (His)6-Cdc12(C40A,C278S) (S. cerevisiae); assay: as above

| Binder | binding [1] | binding [2] |
| --- | --- | --- |
| Cdc3(C124V,C253V,C279V) (protein, UniProt P32457 1-520) MSLKEEQVSIKQDPEQEERQHDQFNDVQIKQESQDHDGVDSQYTNGTQNDDSERFEAAESDVKVEPGLGMGITSSQSEKGQVLPDQPEIKFIRRQINGYVGFANLPKQWHRRSIKNGFSFNLLVVGPDGIGKTTLMKTLFNNDDIEANLVKDYEEELANDQEEEEGQGEGHENQSQEQRHKVKIKSYESVIEENGVKLNLNVIDTEGFGDFLNNDQKSWDPIIKEIDSRFDQYLDAENKINRHSINDKRIHAVLYFIEPTGHYLKPLDLKFMQSVYEKVNLIPVIAKSDILTDEEILSFKKTIMNQLIQSNIELFKPPIYSNDDAENSHLSERLFSSLPYAVIGSNDIVENYSGNQVRGRSYPWGVIEVDNDNHSDFNLLKNLLIKQFMEELKERTSKILYENYRSSKLAKLGIKQDNSVFKEFDPISKQQEEKTLHEAKLAKLEIEMKTVFQQKVSEKEKKLQKSETELFARHKEMKEKLTKQLKALEDKKKQLELSINSASPNVNHSPVPTKKKGFLR | binds | binds |
| Cdc10(C266S) (protein, UniProt P25342 1-322) MDPLSSVQPASYVGFDTITNQIEHRLLKKGFQFNIMVVGQSGLGKSTLINTLFASHLIDSATGDDISALPVTKTTEMKISTHTLVEDRVRLNINVIDTPGFGDFIDNSKAWEPIVKYIKEQHSQYLRKELTAQRERFITDTRVHAILYFLQPNGKELSRLDVEALKRLTEIANVIPVIGKSDTLTLDERTEFRELIQNEFEKYNFKIYPYDSEELTDEELELNRSVRSIIPFAVVGSENEIEINGETFRGRKTRWSAINVEDINQSDFVYLREFLIRTHLQDLIETTSYIHYEGFRARQLIALKENANSRSSAHMSSNAIQR | binds | binds |
| Shs1(C29V,C148S,E344C) (protein, UniProt Q07657 1-551) MSTASTPPINLFRRKKEHKRGITYTMLLVGPAGTGKTAFANNLLETKIFPHKYQYGKSNASISSNPEVKVIAPTKVVSFNSKNGIPSYVSEFDPMRANLEPGITITSTSLELGGNKDQGKPEMNEDDTVFFNLIMTHGIGENLDDSLSSEEVMSYLEQQFDIVLAEETRIKRNPRFEDTRVHVALYFIEPTGHGLREVDVELMKSISKYTNVLPIITRADSFTKEELTQFRKNIMFDVERYNVPIYKFEVDPEDDDLESMEENQALASLQPFAIITSDTRDSEGRYVREYPWGIISIDDDKISDLKVLKNVLFGSHLQEFKDTTQNLLYENYRSEKLSSVANACEIGPNSTKRQSNAPSLSNFASLISTGQFNSSQTLANNLRADTPRNQVSGNFKENEYEDNGEHDSAENEQEMSPVRQLGREIKQENENLIRSIKTESSPKFLNSPDLPERTKLRNISETVPYVLRHERILARQQKLEELEAQSAKELQKRIQELERKAHELKLREKLINQNKLNGSSSSINSLQQSTRSQIKKNDTYTDLASIASGRD |  | binds |
| Shs1(E344C ΔCTE), otherwise Cys-less (domain or fragment, UniProt Q07657 1-348) MSTASTPPINLFRRKKEHKRGITYTMLLVGPAGTGKTAFANNLLETKIFPHKYQYGKSNASISSNPEVKVIAPTKVVSFNSKNGIPSYVSEFDPMRANLEPGITITSTSLELGGNKDQGKPEMNEDDTVFFNLIMTHGIGENLDDSLSSEEVMSYLEQQFDIVLAEETRIKRNPRFEDTRVHVALYFIEPTGHGLREVDVELMKSISKYTNVLPIITRADSFTKEELTQFRKNIMFDVERYNVPIYKFEVDPEDDDLESMEENQALASLQPFAIITSDTRDSEGRYVREYPWGIISIDDDKISDLKVLKNVLFGSHLQEFKDTTQNLLYENYRSEKLSSVANACEIGP |  | binds |
| Shs1(Δ2–18/Δα0 E344C), otherwise Cys-less (protein, UniProt Q07657) MKRGITYTMLLVGPAGTGKTAFANNLLETKIFPHKYQYGKSNASISSNPEVKVIAPTKVVSFNSKNGIPSYVSEFDPMRANLEPGITITSTSLELGGNKDQGKPEMNEDDTVFFNLIMTHGIGENLDDSLSSEEVMSYLEQQFDIVLAEETRIKRNPRFEDTRVHVALYFIEPTGHGLREVDVELMKSISKYTNVLPIITRADSFTKEELTQFRKNIMFDVERYNVPIYKFEVDPEDDDLESMEENQALASLQPFAIITSDTRDSEGRYVREYPWGIISIDDDKISDLKVLKNVLFGSHLQEFKDTTQNLLYENYRSEKLSSVANACEIGPNSTKRQSNAPSLSNFASLISTGQFNSSQTLANNLRADTPRNQVSGNFKENEYEDNGEHDSAENEQEMSPVRQLGREIKQENENLIRSIKTESSPKFLNSPDLPERTKLRNISETVPYVLRHERILARQQKLEELEAQSAKELQKRIQELERKAHELKLREKLINQNKLNGSSSSINSLQQSTRSQIKKNDTYTDLASIASGRD |  | binds |
| Cdc3(S407C), otherwise Cys-less (protein, UniProt P32457 1-520) MSLKEEQVSIKQDPEQEERQHDQFNDVQIKQESQDHDGVDSQYTNGTQNDDSERFEAAESDVKVEPGLGMGITSSQSEKGQVLPDQPEIKFIRRQINGYVGFANLPKQWHRRSIKNGFSFNLLVVGPDGIGKTTLMKTLFNNDDIEANLVKDYEEELANDQEEEEGQGEGHENQSQEQRHKVKIKSYESVIEENGVKLNLNVIDTEGFGDFLNNDQKSWDPIIKEIDSRFDQYLDAENKINRHSINDKRIHAVLYFIEPTGHYLKPLDLKFMQSVYEKVNLIPVIAKSDILTDEEILSFKKTIMNQLIQSNIELFKPPIYSNDDAENSHLSERLFSSLPYAVIGSNDIVENYSGNQVRGRSYPWGVIEVDNDNHSDFNLLKNLLIKQFMEELKERTSKILYENYRSCKLAKLGIKQDNSVFKEFDPISKQQEEKTLHEAKLAKLEIEMKTVFQQKVSEKEKKLQKSETELFARHKEMKEKLTKQLKALEDKKKQLELSINSASPNVNHSPVPTKKKGFLR |  | binds |
| Cdc10(R298C), otherwise Cys-less (protein, UniProt P25342 1-322) MDPLSSVQPASYVGFDTITNQIEHRLLKKGFQFNIMVVGQSGLGKSTLINTLFASHLIDSATGDDISALPVTKTTEMKISTHTLVEDRVRLNINVIDTPGFGDFIDNSKAWEPIVKYIKEQHSQYLRKELTAQRERFITDTRVHAILYFLQPNGKELSRLDVEALKRLTEIANVIPVIGKSDTLTLDERTEFRELIQNEFEKYNFKIYPYDSEELTDEELELNRSVRSIIPFAVVGSENEIEINGETFRGRKTRWSAINVEDINQSDFVYLREFLIRTHLQDLIETTSYIHYEGFRACQLIALKENANSRSSAHMSSNAIQR |  | binds |
